Assay [1] concerns the target T1, EGFP-FIGNL1 (full length) (human) (UniProt Q6PIW4).
T1 sequence: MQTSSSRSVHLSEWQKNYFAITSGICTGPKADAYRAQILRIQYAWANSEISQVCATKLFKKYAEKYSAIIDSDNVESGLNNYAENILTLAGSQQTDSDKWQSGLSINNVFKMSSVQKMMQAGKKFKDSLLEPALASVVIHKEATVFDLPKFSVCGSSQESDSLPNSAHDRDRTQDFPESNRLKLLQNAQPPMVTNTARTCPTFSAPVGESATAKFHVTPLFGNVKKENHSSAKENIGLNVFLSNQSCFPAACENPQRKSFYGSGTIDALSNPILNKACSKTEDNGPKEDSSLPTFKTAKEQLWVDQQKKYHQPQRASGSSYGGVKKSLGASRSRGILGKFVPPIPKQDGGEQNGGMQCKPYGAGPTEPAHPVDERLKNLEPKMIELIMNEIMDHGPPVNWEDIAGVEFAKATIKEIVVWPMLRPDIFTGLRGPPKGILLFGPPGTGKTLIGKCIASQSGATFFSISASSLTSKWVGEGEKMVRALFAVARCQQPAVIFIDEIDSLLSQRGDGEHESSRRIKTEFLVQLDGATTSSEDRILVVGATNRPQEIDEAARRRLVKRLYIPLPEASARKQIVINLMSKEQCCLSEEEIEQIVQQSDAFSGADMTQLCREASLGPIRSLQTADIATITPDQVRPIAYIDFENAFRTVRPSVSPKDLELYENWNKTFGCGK
Nature of the assay: co-IP.

Sequences of proteins named here, by UniProt entry; tags and fusion partners are left off.
UniProt Q06609: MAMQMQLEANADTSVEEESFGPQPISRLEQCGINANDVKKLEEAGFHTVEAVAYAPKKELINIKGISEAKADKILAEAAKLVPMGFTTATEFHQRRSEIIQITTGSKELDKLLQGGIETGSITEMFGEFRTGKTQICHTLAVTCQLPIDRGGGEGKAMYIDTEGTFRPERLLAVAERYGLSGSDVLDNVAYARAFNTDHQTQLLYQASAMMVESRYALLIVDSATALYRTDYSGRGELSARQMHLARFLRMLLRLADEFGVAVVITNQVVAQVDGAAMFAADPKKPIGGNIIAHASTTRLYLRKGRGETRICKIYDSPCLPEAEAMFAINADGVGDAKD

The target in the next assay is T2, MBP-MMS22L-His (human) (UniProt Q6ZRQ5).
T2 sequence: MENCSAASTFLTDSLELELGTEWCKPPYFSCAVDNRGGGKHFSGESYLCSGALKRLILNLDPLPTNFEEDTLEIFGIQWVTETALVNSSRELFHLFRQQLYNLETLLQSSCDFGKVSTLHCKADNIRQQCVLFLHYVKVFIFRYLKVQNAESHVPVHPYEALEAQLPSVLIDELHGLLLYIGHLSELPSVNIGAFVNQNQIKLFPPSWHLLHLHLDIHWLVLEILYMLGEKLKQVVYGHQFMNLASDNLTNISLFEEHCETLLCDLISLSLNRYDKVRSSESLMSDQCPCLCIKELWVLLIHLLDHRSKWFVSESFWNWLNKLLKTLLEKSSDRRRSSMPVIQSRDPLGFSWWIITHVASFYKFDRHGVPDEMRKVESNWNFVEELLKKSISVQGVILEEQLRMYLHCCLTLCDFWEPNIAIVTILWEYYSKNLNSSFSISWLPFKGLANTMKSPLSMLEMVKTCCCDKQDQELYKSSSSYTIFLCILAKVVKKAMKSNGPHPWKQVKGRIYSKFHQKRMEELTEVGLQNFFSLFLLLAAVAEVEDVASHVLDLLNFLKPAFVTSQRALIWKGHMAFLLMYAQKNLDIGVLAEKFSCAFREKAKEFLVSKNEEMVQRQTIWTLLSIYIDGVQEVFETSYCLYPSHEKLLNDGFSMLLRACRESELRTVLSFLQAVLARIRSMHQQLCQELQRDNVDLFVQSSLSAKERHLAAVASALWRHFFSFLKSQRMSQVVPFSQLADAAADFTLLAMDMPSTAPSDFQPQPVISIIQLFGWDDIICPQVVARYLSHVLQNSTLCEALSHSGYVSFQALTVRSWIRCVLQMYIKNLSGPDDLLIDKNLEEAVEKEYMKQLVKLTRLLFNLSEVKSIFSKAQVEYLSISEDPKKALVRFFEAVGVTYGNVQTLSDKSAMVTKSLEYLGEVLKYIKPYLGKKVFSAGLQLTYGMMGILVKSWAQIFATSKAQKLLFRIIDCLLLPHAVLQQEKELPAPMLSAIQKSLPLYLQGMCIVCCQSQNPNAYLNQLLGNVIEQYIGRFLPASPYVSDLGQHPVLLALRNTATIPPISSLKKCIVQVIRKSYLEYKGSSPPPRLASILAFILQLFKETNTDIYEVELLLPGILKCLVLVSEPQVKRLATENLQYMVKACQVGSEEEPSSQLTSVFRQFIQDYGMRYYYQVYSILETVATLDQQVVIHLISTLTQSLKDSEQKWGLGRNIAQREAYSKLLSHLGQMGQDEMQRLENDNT
Nature of the assay: co-purification.

These are yes or no findings as the source states them, for the method shown. For part of these data: Binding seen in cells or lysates may run through a third protein. Some entries that bind do so weakly or less than the wild type. Sequences can lack the tags named with a protein.

Turning to “MMS22L-TONSL complex (endogenous, RPE1 nuclear extract) (from UniProt Q6ZRQ5;Q96HA7)”, the binding result in assay [1] was “binds”.
For the molecule “RAD51 (endogenous, RPE1 nuclear extract) (from UniProt Q06609 1-339)”, in assay [1], the binding result is on record as “binds”.

B1: GST-TONSL (protein, UniProt Q96HA7 1-1378)
chain: MSLERELRQLSKAKAKAQRAGQRREEAALCHQLGELLAGHGRYAEALEQHWQELQLRERADDPLGCAVAHRKIGERLAEMEDYPAALQHQHQYLELAHSLRNHTELQRAWATIGRTHLDIYDHCQSRDALLQAQAAFEKSLAIVDEELEGTLAQGELNEMRTRLYLNLGLTFESLQQTALCNDYFRKSIFLAEQNHLYEDLFRARYNLGTIHWRAGQHSQAMRCLEGARECAHTMRKRFMESECCVVIAQVLQDLGDFLAAKRALKKAYRLGSQKPVQRAAICQNLQHVLAVVRLQQQLEEAEGRDPQGAMVICEQLGDLFSKAGDFPRAAEAYQKQLRFAELLDRPGAERAIIHVSLATTLGDMKDHHGAVRHYEEELRLRSGNVLEEAKTWLNIALSREEAGDAYELLAPCFQKALSCAQQAQRPQLQRQVLQHLHTVQLRLQPQEAPETETRLRELSVAEDEDEEEEAEEAAATAESEALEAGEVELSEGEDDTDGLTPQLEEDEELQGHLGRRKGSKWNRRNDMGETLLHRACIEGQLRRVQDLVRQGHPLNPRDYCGWTPLHEACNYGHLEIVRFLLDHGAAVDDPGGQGCEGITPLHDALNCGHFEVAELLLERGASVTLRTRKGLSPLETLQQWVKLYRRDLDLETRQKARAMEMLLQAAASGQDPHSSQAFHTPSSLLFDPETSPPLSPCPEPPSNSTRLPEASQAHVRVSPGQAAPAMARPRRSRHGPASSSSSSEGEDSAGPARPSQKRPRCSATAQRVAAWTPGPASNREAATASTSRAAYQAAIRGVGSAQSRLGPGPPRGHSKALAPQAALIPEEECLAGDWLELDMPLTRSRRPRPRGTGDNRRPSSTSGSDSEESRPRARAKQVRLTCMQSCSAPVNAGPSSLASEPPGSPSTPRVSEPSGDSSAAGQPLGPAPPPPIRVRVQVQDHLFLIPVPHSSDTHSVAWLAEQAAQRYYQTCGLLPRLTLRKEGALLAPQDLIPDVLQSNDEVLAEVTSWDLPPLTDRYRRACQSLGQGEHQQVLQAVELQGLGLSFSACSLALDQAQLTPLLRALKLHTALRELRLAGNRLGDKCVAELVAALGTMPSLALLDLSSNHLGPEGLRQLAMGLPGQATLQSLEELDLSMNPLGDGCGQSLASLLHACPLLSTLRLQACGFGPSFFLSHQTALGSAFQDAEHLKTLSLSYNALGAPALARTLQSLPAGTLLHLELSSVAAGKGDSDLMEPVFRYLAKEGCALAHLTLSANHLGDKAVRDLCRCLSLCPSLISLDLSANPEISCASLEELLSTLQKRPQGLSFLGLSGCAVQGPLGLGLWDKIAAQLRELQLCSRRLCAEDRDALRQLQPSRPGPGECTLDHGSKLFFRRL
As for B1, the binding entry in the assay with MBP-MMS22L-His (human) is “binds”.

Values taken from publication doi:10.1101/2024.11.03.621741 (bioRxiv, 2024).
